The other results are listed elsewhere or left out. Single values are uncertain, as repeats are few or missing.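 Imaging used 1,536-well plates; nuclei positive for cleaved PARP by antibody were divided by total DNA-stained nuclei to yield the apoptosis fraction. Doses for screening kept most cells viable, and cell lines differ markedly in resting and induced cleaved-PARP levels.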
Columns and labels:
Assay in all cases: cleaved PARP positive nuclei fraction relative to DMSO control; melanoma cells; higher = more apoptosis
Details in all cases: library dose: low library concentration; 72 h
A101D = test system: A101D
A2058 = test system: A2058
A375 = test system: A375
C32 = test system: C32
CBRC013 = test system: CBRC013 (line from a melanoma biopsy)
CBRC014 = test system: CBRC014 (line from a melanoma biopsy)
CBRC016 = test system: CBRC016 (line from a melanoma biopsy)
CBRC017 = test system: CBRC017 (line from a melanoma biopsy)
CBRC034 = test system: CBRC034 (line from a melanoma biopsy)
COLO792 = test system: COLO792
COLO800 = test system: COLO800
COLO829 = test system: COLO829
G361 = test system: G361
IPC-298 = test system: IPC-298
IST-MEL1 = test system: IST-MEL1
LOXIMVI = test system: LOXIMVI
CBRC008 = test system: CBRC008 (line from a melanoma biopsy)
MEL-HO = test system: MEL-HO

Row | Compound | cleaved PARP positive nuclei fraction (A101D) [%] | cleaved PARP positive nuclei fraction (A2058) [%] | cleaved PARP positive nuclei fraction (A375) [%] | cleaved PARP positive nuclei fraction (C32) [%] | cleaved PARP positive nuclei fraction (CBRC013) [%] | cleaved PARP positive nuclei fraction (CBRC014) [%] | cleaved PARP positive nuclei fraction (CBRC016) [%] | cleaved PARP positive nuclei fraction (CBRC017) [%] | cleaved PARP positive nuclei fraction (CBRC034) [%] | cleaved PARP positive nuclei fraction (COLO792) [%] | cleaved PARP positive nuclei fraction (COLO800) [%] | cleaved PARP positive nuclei fraction (COLO829) [%] | cleaved PARP positive nuclei fraction (G361) [%] | cleaved PARP positive nuclei fraction (IPC-298) [%] | cleaved PARP positive nuclei fraction (IST-MEL1) [%] | cleaved PARP positive nuclei fraction (LOXIMVI) [%] | cleaved PARP positive nuclei fraction (CBRC008) [%] | cleaved PARP positive nuclei fraction (MEL-HO) [%]
1 | CC(C)(C)c1cnc(CSc2cnc(NC(=O)C3CCNCC3)s2)o1 + O=S(=O)(c1ccccc1)N(CC(F)(F)F)c1ccc(C(O)(C(F)(F)F)C(F)(F)F)cc1 [T0901317] (first compound 0.01 µM, partner dose 1.4 µM) | 59.6 | 219 | 159 | 65.8 | 69 | 122 | 92 | 79.1 | 166 | 116 | 157 | 58.6 | 81.8 | 89 | 92.6 | 61.3 | – | –
2 | Cc1cc(N2CCOCC2)cc2[nH]c(-c3c(NC[C@@H](O)c4cccc(Cl)c4)cc[nH]c3=O)nc12 + CC(C)CCN1c2nc(Nc3cc(F)c(O)c(F)c3)ncc2N(C)C(=O)C1C [BID1870] (first compound 0.2 µM, partner dose 0.2 µM) | 143 | 89.9 | 163 | 120 | 1300 | 112 | 23 | 87.7 | 50.4 | 166 | 218 | 71.3 | 25.7 | 173 | 43.3 | 32.3 | – | –
3 | CC(=O)c1c(C)c2cnc(Nc3ccc(N4CCNCC4)cn3)nc2n(C2CCCC2)c1=O [palbociclib] + COc1cc(Nc2ncc(F)c(Nc3ccc4c(n3)NC(=O)C(C)(C)O4)n2)cc(OC)c1OC [Tamatinib] (first compound 0.04 µM, partner dose 0.4 µM) | 269 | 177 | 195 | 114 | 155 | 110 | 87.4 | 83.9 | – | 240 | 85.5 | 72.7 | 107 | 287 | 130 | 69.4 | 68 | 131
4 | CC(=O)c1c(C)c2cnc(Nc3ccc(N4CCNCC4)cn3)nc2n(C2CCCC2)c1=O [palbociclib] + COc1ccc(COc2ccc(Cc3cnc(N)nc3N)cc2OC)cc1 [GW2580] (first compound 0.04 µM, partner dose 1 µM) | 33.5 | 106 | – | 141 | – | 127 | 101 | 103 | – | 150 | 65.5 | 130 | 148 | 53.8 | 43.8 | 91.6 | 75.7 | –
5 | COCC[n+]1c2c(n(Cc3cnccn3)c1C)C(=O)c1ccccc1C2=O + CN(C)S(=O)(=O)c1ccc2c(c1)/C(=C/c1cc3c([nH]1)CCCC3)C(=O)N2 [SU6656] (first compound 0.0004 µM, partner dose 0.4 µM) | 99.3 | 261 | 128 | 231 | 89.3 | 111 | 32.8 | 219 | – | 124 | 25.8 | 51.9 | 70.2 | 99.9 | 87.4 | 75.3 | 993 | 128
6 | Cc1ccc(NC(=O)c2cccc(N(C)C)c2)cc1NC(=O)c1ccc(O)cc1 + CC(C)(C)c1cnc(CSc2cnc(NC(=O)C3CCNCC3)s2)o1 [SNS-032] (first compound 2 µM, partner dose 0.01 µM) | 85.4 | 76.7 | 38.6 | 73.2 | 53.2 | 86.9 | 115 | 85 | – | 28.3 | 143 | 186 | 29.8 | 109 | 183 | 75.7 | 27.9 | 69.1
7 | CO[C@@H]1[C@H](N(C)C(=O)c2ccccc2)C[C@H]2O[C@]1(C)n1c3ccccc3c3c4c(c5c6ccccc6n2c5c31)C(=O)NC4 [Midostaurin] + c1cc(-c2cnn3cc(-c4ccc(OCCN5CCCCC5)cc4)cnc23)ccn1 [Dorsomorphin] (first compound 0.08 µM, partner dose 0.4 µM) | 83.8 | 70.3 | 67.8 | 67.2 | 327 | 94.5 | 123 | 93.2 | 83.8 | 97.4 | 189 | 111 | 37.4 | 116 | 160 | 89.1 | – | –
8 | O=C(Nc1cccc(Cl)c1)Nc1ncc(CCNc2ncnc3ccsc23)s1 + O=C(O)c1ccc(-c2c[nH]c3ncc(-c4ccccc4)cc23)cc1C1CCCC1 [GSK650394] (first compound 0.0008 µM, partner dose 0.16 µM) | 39.3 | 132 | 53.8 | 68.3 | 137 | 98.7 | 362 | 122 | – | 243 | 116 | 94.3 | 158 | 49.1 | 85.9 | 46.7 | 533 | 77.1
9 | O=C(CCCCCCC(=O)Nc1ccccc1)NO [vorinostat] + OCCn1cc(-c2cnc3nnn(Cc4ccc5ncccc5c4)c3n2)cn1 [PF04217903] (first compound 0.08 µM, partner dose 1 µM) | 168 | 210 | 103 | 40.6 | 65.8 | 98.6 | 80.3 | 133 | – | 107 | 66.8 | 153 | 115 | 48.5 | 193 | 341 | 40.6 | 118

— the supplement of paper PMC4604168 (melanoma cell lines)
